Measured values reported in patent US9725423B2, “Tetrazolinone compound and applications thereof” (SUMITOMO CHEMICAL COMPANY, LIMITED, priority 2012, dated 2017).
Some results were stated once for a whole list of compounds, not compound by compound.

The compounds below were run on rice blast fungus (Magnaporthe grisea). Details: 200 ppm, foliar spray, rice (NIHONBARE), 6 days contact with infected seedlings.
Assay type: in vivo

Compound	lesion area with respect to the lesion area on the non-treated plant [%]
CC(=NOCc1c(C)cccc1-n1nnn(C)c1=O)c1cccc(-c2ccccc2)c1 [present compound 155, 1-[2-(1-biphenyl-3-ylethylideneaminooxymethyl)-3-methylphenyl]-4-m ethyl-1,4-dihydrotetrazol-5-one]	≤ 30
CC(=NOCc1c(-n2nnn(C)c2=O)cccc1C(F)(F)F)c1cccc(Cl)c1 [present compound 112, 1-{2-[1-(3-chlorophenyl)ethylideneaminooxymethyl]-3-trifluoromethylphenyl}-4-methyl-1,4-dihydrotetrazol-5-one]	≤ 30
CC(=NOCc1c(C)cccc1-n1nnn(C)c1=O)c1cccc(C(F)F)c1 [present compound 2, 1-{3-methyl-2-[1-(3-difluoromethylphenyl)ethylideneaminooxymethyl]phenyl}-4-methyl-1,4-dihydrotetrazol-5-one]	≤ 30
CCC(=NOCc1c(C)cccc1-n1nnn(C)c1=O)c1cccc2c1CCCC2 [present compound 126, 1-{3-methyl-2-[1-(5,6,7,8-tetrahydronaphthalen-1-yl)propylideneaminooxymethyl]phenyl}-4-methyl-1,4-dihydrotetrazol-5-one]	≤ 30
CC(=NOCc1c(Cl)cccc1-n1nnn(C)c1=O)c1ccc2c(c1)CCC2 [present compound 19, 1-{3-chloro-2-[1-(indan-5-yl)ethylideneaminooxymethyl]phenyl}-4-methyl-1,4-dihydrotetrazol-5-one]	≤ 30
CC(=NOCc1c(C2CC2)cccc1-n1nnn(C)c1=O)c1ccc2c(c1)CCC2 [present compound 58, 1-{3-cyclopropyl-2-[1-(indan-5-yl)ethylideneaminooxymethyl]phenyl}-4-methyl-1,4-dihydrotetrazol-5-one]	≤ 30
CC(=NOCc1c(OC(F)F)cccc1-n1nnn(C)c1=O)c1cccc2c1CCC2 [present compound 151, 1-[3-difluoromethoxy-2-(1-indan-4-ylethylideneaminooxymethyl)phenyl]-4-methyl-1,4-dihydrotetrazol-5-one]	≤ 30
CC(=NOCc1c(C)cccc1-n1nnn(C)c1=O)c1ccccc1-c1ccccc1 [present compound 150, 1-[2-(1-biphenyl-2-ylethylideneaminooxymethyl)-3-methylphenyl]-4-m ethyl-1,4-dihydrotetrazol-5-one]	≤ 30
CC(=NOCc1c(C)cccc1-n1nnn(C)c1=O)C1CCCCC1 [present compound 201, 1-[2-(1-cyclohexylethylideneaminooxymethyl)-3-methylphenyl]-4-methyl-1,4-dihydrotetrazol-5-one]	≤ 30
COc1cccc(-n2nnn(C)c2=O)c1CON=C(C)c1cc(C)cc(C)c1 [present compound 48, 1-{3-methoxy-2-[1-(3,5-dimethylphenyl)ethylideneaminooxymethyl]phenyl}-4-methyl-1,4-dihydrotetrazol-5-one]	≤ 30
CCCCCCOc1cccc(C(C)=NOCc2c(C)cccc2-n2nnn(C)c2=O)c1 [present compound 72, 1-{3-methyl-2-[1-(3-hexyloxyphenyl)ethylideneaminooxymethyl]phenyl}-4-methyl-1,4-dihydrotetrazol-5-one]	≤ 30
Cn1nnn(-c2cccc(Cl)c2CON=C2CCc3ccccc32)c1=O [present compound 13, 1-[3-chloro-2-(indan-1-ylideneaminooxymethyl]phenyl)-4-methyl-1,4-dihydrotetrazol-5-one]	≤ 30
CC(=NOCc1c(Cl)cccc1-n1nnn(C)c1=O)c1ccc2c(c1)OCO2 [present compound 3, 1-[2-(1-benzo[1,3]dioxan-5-yl-ethylideneaminooxymethyl)-3-chlorophenyl]-4-methyl-1,4-dihydrotetrazol-5-one]	≤ 30
CC(=NOCc1c(Cl)cccc1-n1nnn(C)c1=O)c1cccc(Cl)c1 [present compound 16, 1-{3-chloro-2-[1-(3-chlorophenyl)ethylideneaminooxymethyl]phenyl}-4-methyl-1,4-dihydrotetrazol-5-one]	≤ 30
COc1cccc(-n2nnn(C)c2=O)c1CON=C(C)c1cccc2c1OC(F)(F)O2 [present compound 135, 1-{2-[1-(2,2-difluorobenzo[1,3]dioxan-4-yl)ethylideneaminooxymethyl]-3-methoxyphenyl}-4-methyl-1,4-dihydrotetrazol-5-one]	≤ 30
CON=C(C(C)=NOCc1c(Cl)cccc1-n1nnn(C)c1=O)c1ccc(Cl)cc1 [present compound 214, 1-(4-chlorophenyl)propane-1,2-dione-2-{O-[2-chloro-6-(4-methyl-5-oxo-4,5-dihydrotetrazol-1-yl)benzyl]oxime}-1-(O-methyloxime)]	≤ 30
Cc1cccc(-n2nnn(C)c2=O)c1CON=C(c1cccc(C(F)(F)F)c1)C1CC1 [present compound 70, 1-{2-[cyclopropyl(3-trifluoromethylphenyl)methylideneaminooxymethyl]-3-methylphenyl}-4-methyl-1,4-dihydrotetrazol-5-one]	≤ 30
CC(=NOCc1c(Cl)cccc1-n1nnn(C)c1=O)c1cccc(C)c1 [present compound 17, 1-{3-chloro-2-[1-(3-methylphenyl)ethylideneaminooxymethyl]phenyl}-4-methyl-1,4-dihydrotetrazol-5-one]	≤ 30
CC(=NOCc1c(C2CC2)cccc1-n1nnn(C)c1=O)c1cccc([N+](=O)[O-])c1 [present compound 57, 1-{3-cyclopropyl-2-[1-(3-nitrophenyl)ethylideneaminooxymethyl]phenyl}-4-methyl-1,4-dihydrotetrazol-5-one]	≤ 30
CC(=NOCc1c(C2CC2)cccc1-n1nnn(C)c1=O)c1cccc(Cl)c1 [present compound 53, 1-{3-cyclopropyl-2-[1-(3-chlorophenyl)ethylideneaminooxymethyl]phenyl}-4-methyl-1,4-dihydrotetrazol-5-one]	≤ 30
CCC(=NOCc1c(C)cccc1-n1nnn(C)c1=O)c1ccc(C(F)(F)F)cc1 [present compound 84, 1-{3-methyl-2-[1-(4-trifluoromethylphenyl)propylideneaminooxymethyl]phenyl}-4-methyl-1,4-dihydrotetrazol-5-one]	≤ 30
CC(=NOCc1c(C)cccc1-n1nnn(C)c1=O)c1cccc(C)c1C [present compound 131, 1-{2-[1-(2,3-dimethylphenyl)ethylideneaminooxymethyl]-3-methylphenyl}-4-methyl-1,4-dihydrotetrazol-5-one]	≤ 30

Same assay, conditions: 500 ppm, foliar spray, rice (NIHONBARE), 6 days contact with infected seedlings

Compound	lesion area with respect to the lesion area on the non-treated plant [%]
CC(=NOCc1c(C)cccc1-n1nnn(C)c1=O)c1ccc2c(c1)CCCC2 [present compound 69, 1-{3-methyl-2-[1-(5,6,7,8-tetrahydronaphthalen-2-yl)ethylideneaminooxymethyl]phenyl}-4-methyl-1,4-dihydrotetrazol-5-one]	≤ 30
CCc1cccc(-n2nnn(C)c2=O)c1CON=C(C)c1cccc2c1CCCC2 [present compound 129, 1-{3-ethyl-2-[1-(5,6,7,8-tetrahydronaphthalen-1-yl)ethylideneaminooxymethyl]phenyl}-4-methyl-1,4-dihydrotetrazol-5-one]	≤ 30
CON=C(C)C(=NOC)C(C)=NOCc1c(C)cccc1-n1nnn(C)c1=O [present compound 211, pentane-2,3,4-trione-2-{O-[2-methyl-6-(4-methyl-5-oxo-4,5-dihydrotetrazol-1-yl)benzyl]oxime}-3,4-bis-(O-methyloxime)]	≤ 30
CC(C=Cc1ccsc1)=NOCc1c(C)cccc1-n1nnn(C)c1=O [present compound 265, 1-[2-(5-mercapto-1,4-dimethylpenta-2,4-dienylideneaminooxymethyl)-3-methylphenyl]-4-methyl-1,4-dihydrotetrazol-5-one]	≤ 30
CC(=NOCc1c(C)cccc1-n1nnn(C)c1=O)c1cccc(OC(C)C)c1 [present compound 76, 1-{3-methyl-2-[1-(3-isopropoxyphenyl)ethylideneiminooxymethyl]phenyl}-4-methyl-1,4-dihydrotetrazol-5-one]	≤ 30
CCCCCOc1cccc(C(C)=NOCc2c(C)cccc2-n2nnn(C)c2=O)c1 [present compound 85, 1-{3-methyl-2-[1-(3-pentyloxyphenyl)ethylideneaminooxymethyl]phenyl}-4-methyl-1,4-dihydrotetrazol-5-one]	≤ 30
CC(=NOCc1c(C)cccc1-n1nnn(C)c1=O)c1ccccc1C [present compound 96, 1-{3-methyl-2-[1-(2-methylphenyl)ethylideneaminooxymethyl]phenyl}-4-methyl-1,4-dihydrotetrazol-5-one]	≤ 30
COc1cccc(C(C)=NOCc2c(Cl)cccc2-n2nnn(C)c2=O)c1 [present compound 5, 1-{3-chloro-2-[1-(3-methoxyphenyl)ethylideneaminooxymethyl]phenyl}-4-methyl-1,4-dihydrotetrazol-5-one]	≤ 30
CC(=NOCc1c(C)cccc1-n1nnn(C)c1=O)c1cccc(C)c1 [present compound 71, 1-{3-methyl-2-[1-(3-methylphenyl)ethylideneaminooxymethyl]phenyl}-4-methyl-1,4-dihydrotetrazol-5-one]	≤ 30
